Taken from: PubChem BioAssay AID652243 (Drosophila RNAi Screening Center, 2013)
The screen tested about 24,000 reagents; shown is a random part of those with a known target gene and a result. In the full data, 246 (1%) were called active. 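Plates not normalised; calls are printed but the firefly/Renilla ratio behind them is not deposited; fold cut for lowering reported inconsistently.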 The raw values are shown without normalisation. Reagents against one gene are numbered here. Names joined by + are all predicted targets of the reagent. The record does not give: the amount of reagent.

Screen: 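Knock-downs that decrease or increase androgen receptor reporter signal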 (primary screen)
Cell system: Drosophila S2R+ cells
Reagents: long dsRNA against Drosophila genes
Time to read-out: 72 h (48 h, then 24 h hormone)
Challenge: synthetic androgen R1881 at 10 nM for 24 h
Measurement: 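Per-well raw luminescence of the androgen-driven firefly reporter and of the Renilla control, two replicates each, without normalisation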
Reading the numbers: firefly reporter light: higher = more light from androgen-responsive reporter; Renilla control light: higher = more constitutive control signal (cell number, transfection)
Hit rule: 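Across duplicate plates, a knock-down whose log firefly/Renilla ratio shifted a set fold down or up from the GFP/LacZ control mean was a hit; the downward cut appears as both 1.5 and 3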
Calls: active = hit: reporter lowered or raised; inactive = no hit

The opening 4 entries, ahead of the listing:
| gene | reagent no. | firefly reporter light, replicate 1 | firefly reporter light, replicate 2 | Renilla control light, replicate 1 | Renilla control light, replicate 2 | Outcome |
| --- | --- | --- | --- | --- | --- | --- |
| Pop4 | 1 | 2.00e5 | 1.99e5 | 2.13e6 | 1.27e6 | inactive |
| Pop4 | 2 | 3.83e5 | 2.94e5 | 7.95e5 | 8.87e5 | inactive |
| Polr2I | 1 | 2.11e5 | 1.55e5 | 1.42e6 | 1.48e6 | inactive |
| CG14664 | 1 | 73271 | 52031 | 2.03e6 | 1.69e6 | inactive |

The list itself, from the start:
| gene | reagent no. | firefly reporter light, replicate 1 | firefly reporter light, replicate 2 | Renilla control light, replicate 1 | Renilla control light, replicate 2 | Outcome |
| --- | --- | --- | --- | --- | --- | --- |
| Pop4 | 1 | 2.00e5 | 1.99e5 | 2.13e6 | 1.27e6 | inactive |
| Pop4 | 2 | 3.83e5 | 2.94e5 | 7.95e5 | 8.87e5 | inactive |
| Polr2I | 1 | 2.11e5 | 1.55e5 | 1.42e6 | 1.48e6 | inactive |
| CG14664 | 1 | 73271 | 52031 | 2.03e6 | 1.69e6 | inactive |
| CG33723 | 1 | 1.30e6 | 9.21e5 | 2.43e6 | 2.21e6 | inactive |
| CG31706 | 1 | 5.83e5 | 4.85e5 | 1.39e6 | 1.19e6 | inactive |
| Vps2 | 1 | 30128 | 24896 | 3.18e5 | 2.60e5 | inactive |
| Vps2 | 2 | 2.03e5 | 2.65e5 | 4.76e5 | 6.33e5 | inactive |
| Pgant5 | 1 | 3.95e5 | 6.11e5 | 7.15e5 | 8.51e5 | inactive |
| MED20 | 1 | 1.51e5 | 1.52e5 | 1.23e6 | 1.19e6 | inactive |
| Cpr78Ca | 1 | 3.10e5 | 2.47e5 | 2.54e6 | 2.67e6 | inactive |
| Hers + amn | 1 | 2.78e5 | 1.14e5 | 1.18e6 | 3.36e5 | inactive |
| Spc25 | 1 | 89929 | 1.08e5 | 1.71e6 | 2.38e6 | inactive |
| Vps52 | 1 | 92142 | 64633 | 9.13e5 | 5.75e5 | inactive |
| CG12935 | 1 | 1.19e6 | 9.12e5 | 1.68e6 | 1.61e6 | inactive |
| eIF4B | 1 | 5.35e5 | 5.84e5 | 7.66e5 | 1.47e6 | inactive |
| CG12769 | 1 | 9.77e5 | 8.19e5 | 1.27e6 | 1.32e6 | inactive |
| Pldn | 1 | 3.01e5 | 3.12e5 | 3.54e6 | 2.72e6 | inactive |
| Pldn | 2 | 4.93e5 | 7.32e5 | 1.34e6 | 2.04e6 | inactive |
| dpr13 | 1 | 1.11e5 | 1.58e5 | 1.45e6 | 1.45e6 | inactive |
| dpr13 | 2 | 74940 | 78985 | 1.50e6 | 1.50e6 | inactive |
| dpr13 | 3 | 2.98e5 | 3.30e5 | 2.61e5 | 3.44e5 | inactive |
| Rpp30 | 1 | 8.30e5 | 6.53e5 | 4.93e6 | 2.41e6 | inactive |
| Oli | 1 | 8.09e5 | 9.78e5 | 1.00e6 | 1.36e6 | inactive |
| Oli | 2 | 3.53e5 | 4.90e5 | 5.09e5 | 7.98e5 | inactive |
| Dlc90F | 1 | 1.48e5 | 1.26e5 | 9.96e5 | 8.30e5 | inactive |
| CG6138 | 1 | 1.59e5 | 1.30e5 | 1.26e6 | 1.01e6 | inactive |
| CG34289 | 1 | 1.01e6 | 8.41e5 | 2.11e6 | 1.71e6 | inactive |
| Eig71Ei | 1 | 3.20e5 | 1.97e5 | 2.92e6 | 2.55e6 | inactive |
| Eig71Ei | 2 | 1.02e6 | 1.09e6 | 1.82e6 | 1.36e6 | inactive |
| Lcch3 | 1 | 1.11e6 | 8.01e5 | 1.98e6 | 1.86e6 | inactive |
| IPIP | 1 | 6.23e5 | 7.66e5 | 2.30e6 | 2.44e6 | inactive |
| IPIP | 2 | 3.53e5 | 3.47e5 | 6.73e5 | 2.76e5 | inactive |
| CG4360 | 1 | 2.51e5 | 2.60e5 | 2.56e6 | 2.87e6 | inactive |
| CG4360 | 2 | 7.94e5 | 7.12e5 | 1.77e6 | 1.55e6 | inactive |
| imd | 1 | 7.23e5 | 5.84e5 | 1.45e6 | 1.28e6 | inactive |
| imd | 2 | 2.66e5 | 2.14e5 | 7.63e5 | 7.27e5 | inactive |
| Cad89D | 1 | 1.32e5 | 92719 | 2.38e6 | 2.18e6 | inactive |
| Pdhb | 1 | 1.51e5 | 1.04e5 | 9.85e5 | 7.16e5 | inactive |
| Pdhb | 2 | 4.23e5 | 2.95e5 | 1.81e6 | 1.18e6 | inactive |
| Pdhb | 3 | 9.89e5 | 9.84e5 | 1.99e6 | 2.80e6 | inactive |
| CSN1a | 1 | 1.08e5 | 1.39e5 | 1.68e6 | 2.18e6 | inactive |
| CG8188 | 1 | 4.14e5 | 4.87e5 | 1.65e6 | 1.92e6 | inactive |
| CG8188 | 2 | 1.82e5 | 1.82e5 | 4.25e5 | 6.54e5 | inactive |
| Las | 1 | 28960 | 10849 | 2.31e5 | 1.95e5 | inactive |
| Las | 2 | 4.46e5 | 4.38e5 | 5.06e5 | 3.49e5 | inactive |
| Drep1 | 1 | 3.64e5 | 2.29e5 | 1.64e6 | 1.25e6 | inactive |
| CG9184 | 1 | 4.78e5 | 4.88e5 | 2.54e6 | 2.69e6 | inactive |
| CG9184 | 2 | 1.21e6 | 8.66e5 | 2.08e6 | 1.49e6 | inactive |
| CG9184 | 3 | 8.33e5 | 6.35e5 | 8.39e5 | 9.84e5 | inactive |
| CG12081 | 1 | 79952 | 56960 | 5.25e5 | 6.59e5 | inactive |
| CG10802 | 1 | 1.11e5 | 1.28e5 | 1.15e6 | 9.80e5 | inactive |
| CG10802 | 2 | 3.39e5 | 4.79e5 | 9.17e5 | 9.17e5 | inactive |
| conv | 1 | 77507 | 97835 | 1.30e6 | 1.30e6 | inactive |
| spoon | 1 | 83719 | 71216 | 6.65e5 | 4.17e5 | inactive |
| spoon | 2 | 5.64e5 | 5.43e5 | 5.03e5 | 5.37e5 | inactive |
| Cht2 | 1 | 1.20e6 | 2.62e5 | 1.45e6 | 6.91e5 | inactive |
| Cht2 | 2 | 7.15e5 | 5.44e5 | 6.92e5 | 4.24e5 | inactive |
| obst-A | 1 | 1.05e5 | 71029 | 8.11e5 | 6.89e5 | inactive |
| CG3735 | 1 | 4.75e5 | 5.27e5 | 1.18e6 | 1.13e6 | inactive |
| ND-B22 | 1 | 1.49e5 | 1.50e5 | 1.87e6 | 1.75e6 | inactive |
| ND-B22 | 2 | 2.92e5 | 6.57e5 | 7.28e5 | 1.47e6 | inactive |
| Mtp | 1 | 1.51e6 | 1.30e6 | 4.02e6 | 2.57e6 | inactive |
| Rpn6 | 1 | 7.30e5 | 1.14e6 | 1.04e6 | 1.16e6 | inactive |
| Spn | 1 | 1.36e5 | 1.98e5 | 3.92e5 | 3.19e5 | inactive |
| Spn | 2 | 8.52e5 | 7.53e5 | 1.41e6 | 1.31e6 | inactive |
| Spn | 3 | 39198 | 46121 | 5.17e5 | 5.50e5 | inactive |
| G6P | 1 | – | – | – | – | inactive |
| G6P | 2 | 2.63e5 | 3.26e5 | 7.36e5 | 7.21e5 | inactive |
| G6P | 3 | – | – | – | – | inactive |
| CG5478 | 1 | 2.47e5 | 2.45e5 | 2.79e6 | 3.13e6 | inactive |
| pAbp | 1 | 4.04e5 | 5.69e5 | 1.41e6 | 1.31e6 | inactive |
| dyw | 1 | 3.91e5 | 2.91e5 | 4.26e6 | 3.93e6 | inactive |
| dyw | 2 | 5.59e5 | 4.09e5 | 9.64e5 | 1.03e6 | inactive |
